Measurements reported in PubChem BioAssay AID602196 (INSERM, 2012)

Screen: 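Genes whose knock-down alters cisplatin killing of lung cancer cells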
Cell system: human A549 lung cancer cells
Knock-down reagent: siRNA pair against human genes
Time to read-out: 48 h transfection before cisplatin; time from cisplatin to read-out not stated
Treatment: cisplatin at a dose killing half of control-siRNA cells; exact dose and duration not given
Detection: 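Cisplatin cell death as a shift from the 50% death seen with control siRNA; siRNAs toxic or growth-blocking alone scored 0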
Reading the numbers: two-siRNA summed score (-2 to +2): higher = both siRNAs protect from cisplatin killing; -2 means both sensitise
Active means: 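Each siRNA scores 0 if harmful alone by LDH or WST-1, otherwise +1 if it reduces and -1 if it increases cisplatin killing; a gene is active when both siRNAs agree (sum +2 or -2)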
Calls: active = both siRNAs shift cisplatin killing the same way; inactive = no consistent shift, or siRNA harmful alone
Shown is one part, drawn at random, of about 23,000 reagents. In the full data, 455 (2%) are marked active. 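Active includes both protection and sensitisation; some change values fall well beyond the stated -50 to +50 range.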 Reagents against one gene are numbered here. Not all columns of the deposit are shown. No sequences are given here. Not given: the amount of reagent.

two-siRNA summed score (-2 to +2), by gene knocked down and reagent
SLC12A9: #1 0 inactive
ZNF248: #1 0 inactive
LOC389722: #1 0 inactive
LOC440557: #1 0 inactive
FBXO9: #1 0 inactive
EXOC6: #1 0 inactive; #2 0 inactive
TENT5B: #1 0 inactive
LOC442545: #1 0 inactive
NCF4: #1 0 inactive
HTRA3: #1 0 inactive
LOC400748: #1 0 inactive
APOL6: #1 0 inactive
CYLC2: #1 0 inactive
OR2T4: #1 1 inactive
PTPRU: #1 0 inactive
CTSK: #1 0 inactive
LOC442658: #1 0 inactive
GINS3: #1 -2 active
LOC401504: #1 0 inactive
LOC253724: #1 0 inactive
TRA2A: #1 0 inactive
RTKN2: #1 1 inactive

No new results follow: entries from further up.
two-siRNA summed score (-2 to +2), by gene knocked down and reagent
HTRA3: #1 0 inactive
LOC400748: #1 0 inactive
